Results deposited as PubChem BioAssay AID1259424 (University of Nebraska Medical Center, 2018)

Purpose: 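Seek colon cancer survival genes behaving like KSR1, using a six-gene signature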 (primary screen)
Cells: human HCT116 colon cancer cells
Reagents: siRNA pool against human genes, 50 nM
Measurement: 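Six signature mRNAs by branched-DNA multiplex assay, scaled to two housekeeping genes and non-targeting median, log2; matched to mean KSR1 knockdown profile by Pearson correlation and euclidean distance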
Direction: mean correlation with KSR1 profile: higher = expression change more like KSR1 knockdown
In all, the deposit lists about 14,000 reagents; this is a part drawn at random. 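Higher correlation or smaller distance means closer resemblance to KSR1 loss; control wells, including KSR1 knockdowns, recur on many plates.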 Further read-outs or replicates are left out here. Reagent sequences are not shown. Not given: the time to read-out.

Knock-down of ALG5 (ALG5 dolichyl-phosphate beta-glucosyltransferase) resulted in: mean correlation with KSR1 profile 0.146. Depletion of FSD1 (fibronectin type III and SPRY domain containing 1) came out at: mean correlation with KSR1 profile 0.504. PPM1E (protein phosphatase, Mg2+/Mn2+ dependent 1E) scored mean correlation with KSR1 profile 0.402. With knock-down of ADGRF2P (adhesion G protein-coupled receptor F2, pseudogene) the results were mean correlation with KSR1 profile 0.231. RAB27A (RAB27A, member RAS oncogene family) gave mean correlation with KSR1 profile 0.409. With knock-down of LY6E (lymphocyte antigen 6 family member E), the record shows mean correlation with KSR1 profile -0.287.

For R3HDM2 (R3H domain containing 2), the values are mean correlation with KSR1 profile -0.417. With knock-down of KIAA0319L (KIAA0319 like), the record shows mean correlation with KSR1 profile 0.0298. For TBX20 (T-box transcription factor 20), the entry reads mean correlation with KSR1 profile -0.19. IVL (involucrin) showed mean correlation with KSR1 profile -0.524. After knock-down of WDR13 (WD repeat domain 13), the screen gave mean correlation with KSR1 profile 0.165. Against P2RY6 (pyrimidinergic receptor P2Y6), the entry reads mean correlation with KSR1 profile -0.137.

Silencing of RASD2 (RASD family member 2) resulted in: mean correlation with KSR1 profile -0.0686.

Quoted from the entries so far (3 entries):
KIAA0319L (KIAA0319 like) — mean correlation with KSR1 profile: 0.0298
TBX20 (T-box transcription factor 20) — mean correlation with KSR1 profile: -0.19
IVL (involucrin) — mean correlation with KSR1 profile: -0.524

Next reagents follow.
CDH13 (cadherin 13) gave mean correlation with KSR1 profile -0.0434. For CASP4 (caspase 4), the values are mean correlation with KSR1 profile -0.651. After knock-down of PBX3 (PBX homeobox 3), the screen gave mean correlation with KSR1 profile -0.203. Knock-down of PARK7 (Parkinsonism associated deglycase) resulted in: mean correlation with KSR1 profile -0.283. With knock-down of GP6 (glycoprotein VI platelet), the record shows mean correlation with KSR1 profile 0.28. LMX1A (LIM homeobox transcription factor 1 alpha) gave mean correlation with KSR1 profile -0.2.

CDC14B (cell division cycle 14B) gave mean correlation with KSR1 profile 0.365. Against HLCS (holocarboxylase synthetase), the entry reads mean correlation with KSR1 profile -0.266. Against TIMM17A (translocase of inner mitochondrial membrane 17A), the values are mean correlation with KSR1 profile 0.0984. After knock-down of KATNBL1 (katanin regulatory subunit B1 like 1), the record shows mean correlation with KSR1 profile 0.388. Against IWS1 (interacts with SUPT6H, CTD assembly factor 1), the entry reads mean correlation with KSR1 profile -0.373. With knock-down of IRF9 (interferon regulatory factor 9), the screen gave mean correlation with KSR1 profile -0.0862.

Knock-down of DKFZp566H0824 (retired record) came out at: mean correlation with KSR1 profile -0.327. For RGS2 (regulator of G protein signaling 2) the deposit lists mean correlation with KSR1 profile 0.817. For DVL3 (dishevelled segment polarity protein 3) the deposit lists mean correlation with KSR1 profile -0.805.
